# Experimental data taken from patent publication US20110311535A1.
# These are yes or no findings as the source states them, for the method shown. Some binding calls cover weakened binding; strength is not graded here. Where a sequence is shown, tags or fusion partners need not be part of it.
# T1: recombinant Rae-1e-Fc (R&D Systems) (mouse) (UniProt Q9CZQ6)
# T1 sequence (looked up): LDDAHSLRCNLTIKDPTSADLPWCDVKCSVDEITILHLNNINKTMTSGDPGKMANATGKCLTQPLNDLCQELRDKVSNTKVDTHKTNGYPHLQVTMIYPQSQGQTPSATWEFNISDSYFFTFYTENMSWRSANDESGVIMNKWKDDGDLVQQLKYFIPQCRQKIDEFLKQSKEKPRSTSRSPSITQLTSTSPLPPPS
# Legend:
# [1] = molecular target: T1, recombinant Rae-1e-Fc (R&D Systems) (mouse); experiment: ELISA, 50 ng Rae-1e-Fc coated, 250 ng NKG2D-Fc, anti-mouse IgG2a-HRP detection
# [2] = molecular target: T1, recombinant Rae-1e-Fc (R&D Systems) (mouse); experiment: ELISA, Rae1e/Fc coated
binding [1],binding [2],Binder
binds,binds,"murine NKG2D-Fc fusion protein (IgG2a-IEGR-NKG2D construct) (Fc fusion, mouse, not shown: a dimerising Fc or GST) IEGRETFQPVLCNKEVPVSSREGYCGPCPNNWICHRNNCYQFFNEEKTWNQSQASCLSQNSSLLKIYSKEEQDFLKLVKSYHWMGLVQIPANGSWQWEDGSSLSYNQLTLVEIPKGSCAVYGSSFKAYTEDCANLNTYICMKRAV"
–,binds,"NKG2D-IgG2a construct (Fc fusion, UniProt O54709 90-232, looked up, not shown: a dimerising Fc or GST) FKETFQPVLCNKEVPVSSREGYCGPCPNNWICHRNNCYQFFNEEKTWNQSQASCLSQNSSLLKIYSKEEQDFLKLVKSYHWMGLVQIPANGSWQWEDGSSLSYNQLTLVEIPKGSCAVYGSSFKAYTEDCANLNTYICMKRAV"
–,binds,"IgG2a-19AA-NKG2D construct (Fc fusion, UniProt O54709 90-232, looked up, not shown: a dimerising Fc or GST; small tags and cut ends) FKETFQPVLCNKEVPVSSREGYCGPCPNNWICHRNNCYQFFNEEKTWNQSQASCLSQNSSLLKIYSKEEQDFLKLVKSYHWMGLVQIPANGSWQWEDGSSLSYNQLTLVEIPKGSCAVYGSSFKAYTEDCANLNTYICMKRAV"
